From patent publication US20240376094A2, “SELECTIVE BCL-XL PROTAC COMPOUNDS AND METHODS OF USE” (Les Laboratoires Servier, priority 2021, published 2024)
pIC50: −log10 of the molar value. The structures given here were assigned with low confidence; some may be wrong.

Chains of the proteins cited; added tags and fusions are not shown.
UniProt Q07817, whole entry: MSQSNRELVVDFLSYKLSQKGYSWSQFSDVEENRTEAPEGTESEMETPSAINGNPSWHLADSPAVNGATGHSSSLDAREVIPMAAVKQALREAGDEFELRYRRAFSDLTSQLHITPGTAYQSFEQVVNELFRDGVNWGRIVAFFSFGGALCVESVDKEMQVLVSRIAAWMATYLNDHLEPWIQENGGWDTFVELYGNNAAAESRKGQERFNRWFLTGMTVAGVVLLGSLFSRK

Columns and labels:
[1] = tested on: EBC-1 lung cancer cell line; test: EBC-1 cell proliferation, CellTiter-Glo assay; settings: read-out: CTG 5 day Ebc1 GI50, Ebc-1 cell viability, 5 days of treatment
[2] = tested on: MOLT-4 cells; test: MOLT-4 cell viability, CTG assay; settings: read-out: MOLT-4 CTG/48 h (IC50), MOLT-4, 48 h
[3] = target: Bcl-xL (Homo sapiens, UniProt Q07817); test: HCT116 Bcl-xL degradation, capillary-based immunoassay (WES); settings: for DC50: read-out: Bcl-xL DC50 (M) WES HCT116 24 h, HCT116, 24 h, 9-point serial dilution
[4] = target: HiBiT-tagged BCL-xL (Homo sapiens, UniProt Q07817); test: NCI-H1650 BCL-xL protein levels, Nano-Glo HiBiT Lytic Detection; settings: read-out: Bcl-xl HIBIT NCIH1650 DC50, NCI-H1650 expressing HiBiT-tagged BCL-xL, overnight incubation
[5] = tested on: MOLT-4 cells; test: MOLT-4 cell viability, MTT assay; settings: read-out: MOLT-4 MTT/48 h (IC50), MOLT-4, 48 h

Structure (SMILES) | GI50 [1] [nM] | pIC50 [2] | DC50 [3] [M] | DC50 [4] [nM] | pIC50 [5] | Bcl-xL % @10 nM WES HCT116 24 h ([3]; HCT116, 10 nM, 24 h, % of untreated cells) [%] | Bcl-xL % @100 nM WES HCT116 24 h ([3]; HCT116, 100 nM, 24 h, % of untreated cells) [%]
Cc1ncsc1-c1ccc([C@H](C)NC(=O)[C@@H]2C[C@@H](O)CN2C(=O)[C@@H](NC(=O)CCNC(=O)c2nc(N3CCCc4c3nnc(Nc3nc5ccccc5s3)c4C)ccc2-c2cnn(CC34CC5(C)CC(C)(C3)CC(OCCN3CCCC3)(C5)C4)c2C)C(C)(C)C)cc1 | 37 | 8.25 | > 3.16e-07 | > 1670 |  |  | 
Cc1ncsc1-c1ccc([C@H](C)NC(=O)[C@@H]2C[C@@H](O)CN2C(=O)[C@@H](NC(=O)CCCCN(C)CCCc2sc(N3CCCc4c3nnc(Nc3nc5ccccc5s3)c4C)nc2C(=O)O)C(C)(C)C)cc1 | 520 | 6.03 | > 3.16e-07 | 200 | 6.57 | 91 | 62
